Assay results from paper doi:10.1101/2022.09.25.509417.
These are yes or no findings as the source states them, for the method shown. In cells and extracts the contact can be indirect. Some results given as binding are weak or reduced against the parent protein; the word gives no strength. For some assays here: Sequences can lack the tags named with a protein.

T1: Myc-tagged MCFD2 (multiple coagulation factor deficiency protein 2) (UniProt Q8NI22)
T1 sequence: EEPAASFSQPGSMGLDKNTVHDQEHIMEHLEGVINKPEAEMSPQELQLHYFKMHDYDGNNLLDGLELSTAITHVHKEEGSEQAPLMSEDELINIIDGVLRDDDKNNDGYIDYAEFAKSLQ

T2: LMAN1 (in the co-IP of Fig. S4) (UniProt P49257)
T2 sequence: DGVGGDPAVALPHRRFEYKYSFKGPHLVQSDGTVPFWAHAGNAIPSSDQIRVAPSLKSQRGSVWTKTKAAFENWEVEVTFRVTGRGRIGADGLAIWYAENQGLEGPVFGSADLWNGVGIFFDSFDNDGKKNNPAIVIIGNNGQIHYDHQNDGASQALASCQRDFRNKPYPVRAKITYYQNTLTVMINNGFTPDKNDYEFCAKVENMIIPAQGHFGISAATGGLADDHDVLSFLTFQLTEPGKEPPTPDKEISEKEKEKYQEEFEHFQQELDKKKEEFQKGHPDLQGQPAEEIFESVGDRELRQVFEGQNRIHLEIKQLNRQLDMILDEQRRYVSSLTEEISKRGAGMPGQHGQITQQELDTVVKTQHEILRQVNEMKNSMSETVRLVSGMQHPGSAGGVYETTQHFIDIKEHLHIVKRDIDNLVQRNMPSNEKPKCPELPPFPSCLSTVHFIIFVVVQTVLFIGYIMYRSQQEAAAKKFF


How the values were obtained:
[1] = biological target: T1, Myc-tagged MCFD2 (multiple coagulation factor deficiency protein 2); experiment: co-IP
[2] = biological target: T2, LMAN1 (in the co-IP of Fig. S4); experiment: co-IP

Binder | binding [1] | binding [2]
FLAG-tagged WT LMAN1 (lectin, mannose binding 1) (protein, UniProt P49257 31-510) DGVGGDPAVALPHRRFEYKYSFKGPHLVQSDGTVPFWAHAGNAIPSSDQIRVAPSLKSQRGSVWTKTKAAFENWEVEVTFRVTGRGRIGADGLAIWYAENQGLEGPVFGSADLWNGVGIFFDSFDNDGKKNNPAIVIIGNNGQIHYDHQNDGASQALASCQRDFRNKPYPVRAKITYYQNTLTVMINNGFTPDKNDYEFCAKVENMIIPAQGHFGISAATGGLADDHDVLSFLTFQLTEPGKEPPTPDKEISEKEKEKYQEEFEHFQQELDKKKEEFQKGHPDLQGQPAEEIFESVGDRELRQVFEGQNRIHLEIKQLNRQLDMILDEQRRYVSSLTEEISKRGAGMPGQHGQITQQELDTVVKTQHEILRQVNEMKNSMSETVRLVSGMQHPGSAGGVYETTQHFIDIKEHLHIVKRDIDNLVQRNMPSNEKPKCPELPPFPSCLSTVHFIIFVVVQTVLFIGYIMYRSQQEAAAKKFF | binds | –
FLAG-tagged LMAN1 V147I variant (protein, UniProt P49257 31-510) DGVGGDPAVALPHRRFEYKYSFKGPHLVQSDGTVPFWAHAGNAIPSSDQIRVAPSLKSQRGSVWTKTKAAFENWEVEVTFRVTGRGRIGADGLAIWYAENQGLEGPVFGSADLWNGIGIFFDSFDNDGKKNNPAIVIIGNNGQIHYDHQNDGASQALASCQRDFRNKPYPVRAKITYYQNTLTVMINNGFTPDKNDYEFCAKVENMIIPAQGHFGISAATGGLADDHDVLSFLTFQLTEPGKEPPTPDKEISEKEKEKYQEEFEHFQQELDKKKEEFQKGHPDLQGQPAEEIFESVGDRELRQVFEGQNRIHLEIKQLNRQLDMILDEQRRYVSSLTEEISKRGAGMPGQHGQITQQELDTVVKTQHEILRQVNEMKNSMSETVRLVSGMQHPGSAGGVYETTQHFIDIKEHLHIVKRDIDNLVQRNMPSNEKPKCPELPPFPSCLSTVHFIIFVVVQTVLFIGYIMYRSQQEAAAKKFF | binds | –
FLAG-tagged LMAN1 N156A variant (protein, UniProt P49257 31-510) DGVGGDPAVALPHRRFEYKYSFKGPHLVQSDGTVPFWAHAGNAIPSSDQIRVAPSLKSQRGSVWTKTKAAFENWEVEVTFRVTGRGRIGADGLAIWYAENQGLEGPVFGSADLWNGVGIFFDSFDADGKKNNPAIVIIGNNGQIHYDHQNDGASQALASCQRDFRNKPYPVRAKITYYQNTLTVMINNGFTPDKNDYEFCAKVENMIIPAQGHFGISAATGGLADDHDVLSFLTFQLTEPGKEPPTPDKEISEKEKEKYQEEFEHFQQELDKKKEEFQKGHPDLQGQPAEEIFESVGDRELRQVFEGQNRIHLEIKQLNRQLDMILDEQRRYVSSLTEEISKRGAGMPGQHGQITQQELDTVVKTQHEILRQVNEMKNSMSETVRLVSGMQHPGSAGGVYETTQHFIDIKEHLHIVKRDIDNLVQRNMPSNEKPKCPELPPFPSCLSTVHFIIFVVVQTVLFIGYIMYRSQQEAAAKKFF | binds | –
FLAG-tagged LMAN1 H178A variant (protein, UniProt P49257 31-510) DGVGGDPAVALPHRRFEYKYSFKGPHLVQSDGTVPFWAHAGNAIPSSDQIRVAPSLKSQRGSVWTKTKAAFENWEVEVTFRVTGRGRIGADGLAIWYAENQGLEGPVFGSADLWNGVGIFFDSFDNDGKKNNPAIVIIGNNGQIHYDAQNDGASQALASCQRDFRNKPYPVRAKITYYQNTLTVMINNGFTPDKNDYEFCAKVENMIIPAQGHFGISAATGGLADDHDVLSFLTFQLTEPGKEPPTPDKEISEKEKEKYQEEFEHFQQELDKKKEEFQKGHPDLQGQPAEEIFESVGDRELRQVFEGQNRIHLEIKQLNRQLDMILDEQRRYVSSLTEEISKRGAGMPGQHGQITQQELDTVVKTQHEILRQVNEMKNSMSETVRLVSGMQHPGSAGGVYETTQHFIDIKEHLHIVKRDIDNLVQRNMPSNEKPKCPELPPFPSCLSTVHFIIFVVVQTVLFIGYIMYRSQQEAAAKKFF | binds | –
MCFD2 V100D variant (protein, UniProt Q8NI22 27-146) EEPAASFSQPGSMGLDKNTVHDQEHIMEHLEGVINKPEAEMSPQELQLHYFKMHDYDGNNLLDGLELSTAITHDHKEEGSEQAPLMSEDELINIIDGVLRDDDKNNDGYIDYAEFAKSLQ | – | binds
